{"source": "paper PMC7755780", "about": "“Tetrachloroethene respiration in Sulfurospirillum species is regulated by a two‐component system as unraveled by comparative genomics, transcriptomics, and regulator binding studies”", "molecular_target": "RR2 (PceP), OmpR-family response regulator of TCS2 (UniProt A0A1D7TJV3)", "assay": "EMSA", "conditions": "EMSA: 10 mM HEPES pH 7.6, 2 mM MgCl2, 200 mM KCl, 0.1 mM EDTA, 5 mM DTT, 10% glycerol, 50 ug/ul Ficoll 70, 250 ng poly(dI/dC), 2.5 pmol DNA in 15 ul; recombinant protein; protein details: Twin-Strep; label: 6-FAM (T982); probe letters rebuilt from the primers and the genome", "note": "Construct, isoform or probe ends are uncertain for at least one entry. No signal at the amounts used counts as a negative."}
{"sequence": "GCCTTTAGTTCCAGATAAGCCTATCGACTTTGGAGTAACAGAATTTTGTGAAACATGTAAAAAATGTGCACGTGAGTGTCCTTCAAAAGCAATTACTGAAGGTCCAAGAACTTTTGAAGGACGAAGTATTCATAATCAATCAGGTAAATTACAGTGGCAAAATGACTATAATAAATGCTTAGGTTATTGGCCGGAATCTGGTGGATATTGTGGCGGGCC (double strand) [pceA structural gene fragment]", "values": [{"measurement": "binding result", "value": "no binding"}]}
